The record followed here is PubChem BioAssay AID1487 (National Center for Advancing Translational Sciences (NCATS), 2009).

The nature of the assay: qHTS Assay for Modulators of Lamin A Splicing. Particulars: HeLa LMNA splicing GFP/RFP minigene ratio, 48 h. A digest of the protocol: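 Read-out is the ratio of GFP to DsRed2 object intensity, acquired by 488 nm laser-scanning cytometry on HeLa lamin A-EGFP minigene reporter cells. Compound incubation 48 hrs at 37 °C in Opti-MEM with 2% FBS; DMSO 0.5% final.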
A general note: In qHTS, concentration-response curves come from the screen itself.

Where [1] appears, read: measured here: GFP splicing reporter channel.
Where [2] appears, read: measured here: RFP viability control channel.

This is one part of the list. Shown are side measurements of this screen, not its main read-out; they come without a call. The list favours compounds with an active or inconclusive main result. Potencies come from curve fits of mixed quality, noted in brackets.

For orientation: AC50 means the concentration giving half of the maximal activity seen. Turning to `O=C(NC(=S)NCc1ccc(F)cc1)c1ccccc1`, the concentration at half-maximal activity (AC50) was 35.5 µM [rising, single point] under setting [1] and 35.5 µM [rising, single point] under setting [2].

Take `CCOC(=O)c1c(OCCO)nn(-c2ccccc2)c1N`: the half-maximal activity concentration (AC50) under setting [2] is 5.01 µM [falling, full curve, poor fit].

In the case of `COc1c2occc2cc2ccc(=O)oc12`, under setting [1], the half-maximal activity concentration (AC50) was 2.24 µM [falling, single point].

Take `O=C(CSc1nc2ccc([N+](=O)[O-])cc2s1)NC1CCS(=O)(=O)C1` (stereo unspecified): the AC50 under setting [2] was 11.2 µM [rising, single point].

As for `Oc1ccc(N=Cc2ccc(O)c(O)c2)cc1`, the AC50 runs as follows: under setting [1], 35.5 µM [falling, single point]; under setting [2], 28.2 µM [falling, single point].

For `N#Cc1c(-c2ccc(Cl)cc2)ccn2nc(CCC(=O)O)nc12`, the AC50 by setting is: under setting [1], 35.5 µM [rising, single point]; under setting [2], 35.5 µM [rising, single point].

Consider `COc1ccc(N2CCN(C(=O)c3ccc(NS(=O)(=O)c4cccc(F)c4)cc3)CC2)cc1`, for which the AC50 under setting [2] is 31.6 µM [rising, single point].

Turning to `O=C(NC1CCN(Cc2ccccc2)CC1)c1cccc(S(=O)(=O)Nc2cc(C(F)(F)F)ccc2Cl)c1`, the AC50 is, setting by setting: under setting [1], 0.112 µM [rising, full curve, poor fit]; under setting [2], 0.126 µM [rising, full curve, poor fit].

With `CN(C)/C=C1\C(=O)N(c2ccc([N+](=O)[O-])cc2)N=C1c1ccccc1`, the AC50 reads like this: under setting [1], 14.1 µM [rising, single point]; under setting [2], 12.6 µM [rising, partial curve].

With `Cc1cc(C)cc(S(=O)(=O)Nc2cccc(-c3ccc(N4CCOCC4)nn3)c2)c1`, the concentration at half-maximal activity (AC50) is, setting by setting: under setting [1], 0.126 µM [falling, full curve, poor fit]; under setting [2], 31.6 µM [falling, partial curve].

For `CC(=O)c1ccc(NC(=O)Cn2c(=O)c3cccn3c3ccccc32)cc1`, the concentration at half-maximal activity (AC50) under setting [1] was 35.5 µM [falling, single point].

Regarding `COc1ccc(-c2nc(-c3ccccc3)c(-c3cc([N+](=O)[O-])ccc3C)[nH]2)cc1O`, the AC50 under setting [1] was 35.5 µM [falling, single point] and the half-maximal activity concentration (AC50) under setting [2] was 22.4 µM [falling, partial curve].

On to `Oc1[nH]c2ccccc2c1C1=NCCCCC1`, for which the half-maximal activity concentration (AC50) under setting [2] was 10 µM [falling, partial curve, poor fit].

Regarding `CCN1CCN(c2ccc(NC(=O)c3ccc([N+](=O)[O-])o3)cc2Cl)CC1`, the half-maximal activity concentration (AC50) reads like this: under setting [1], 8.91 µM [falling, partial curve, poor fit]; under setting [2], 35.5 µM [falling, single point].

With `O=C(CSc1nnc2n1CCCN2C(=S)Nc1ccc(Cl)cc1)c1ccccc1`, under setting [2], the AC50 is 25.1 µM [rising, single point].

In the case of `COc1ccc(CC(=O)Nc2nnc(SCC(=O)NCc3ccco3)s2)cc1OC`, the AC50 under setting [2] is 2.51 µM [rising, full curve, poor fit].

For `Cc1oc(-c2cc(Cl)cc(Cl)c2)cc1C(=O)NCCc1ccccc1`, under setting [2], the AC50 was 0.891 µM [rising, full curve, poor fit].

For `Cn1c(=O)oc2cc(S(=O)(=O)Nc3ccc4c(c3)OCCO4)ccc21`, the AC50 under setting [1] was 14.1 µM [rising, partial curve] and the half-maximal activity concentration (AC50) under setting [2] is 14.1 µM [rising, partial curve].

`c1ccc(-c2csc3ncnc(NCC4COc5ccccc5O4)c23)cc1` (stereo unspecified): the concentration at half-maximal activity (AC50) was 12.6 µM [rising, partial curve, poor fit] under setting [1] and 1.41 µM [rising, partial curve] under setting [2].

As for `CC(OC(=O)c1ccccc1NS(=O)(=O)c1cccc(N)c1)C(=O)N(C)Cc1ccccc1` (stereo unspecified), the half-maximal activity concentration (AC50) under setting [2] was 35.5 µM [rising, single point].

`COc1ccc(N(Cc2ccccc2)S(=O)(=O)c2ccc(C)cc2)cc1`: the AC50 runs as follows: under setting [1], 14.1 µM [falling, partial curve]; under setting [2], 25.1 µM [falling, partial curve].

Take `CC(=O)c1ccc(NC(=S)Nc2ccn(Cc3ccc(Br)cc3)n2)cc1`: under setting [2], the half-maximal activity concentration (AC50) is 22.4 µM [rising, partial curve, poor fit].

On to `Cc1nc2ccccc2n1CC(=O)NCc1ccccc1`, for which the AC50 runs as follows: under setting [1], 17.8 µM [rising, single point]; under setting [2], 20 µM [rising, single point].

Consider `CCCCNC(=S)N(Cc1ccco1)Cc1cc2cc3c(cc2[nH]c1=O)OCCO3`, for which the half-maximal activity concentration (AC50) is, setting by setting: under setting [1], 17.8 µM [rising, single point]; under setting [2], 35.5 µM [rising, single point].

With `Fc1ccc(-c2cc3nc4c(c(N5CCOCC5)n3n2)CCCC4)cc1`, the AC50 is, setting by setting: under setting [1], 15.8 µM [rising, single point]; under setting [2], 28.2 µM [rising, single point].

With `CC1=CC(C)(C)N(C(=O)CSc2nnc(-c3ccccc3)o2)c2ccc(C)cc21`, the half-maximal activity concentration (AC50) by setting is: under setting [1], 14.1 µM [rising, partial curve]; under setting [2], 25.1 µM [rising, single point].

With `CCOC(=O)c1cnc(NCc2ccccc2OC)c2ccccc12`, the AC50 is, setting by setting: under setting [1], 0.631 µM [rising, full curve, poor fit]; under setting [2], 20 µM [rising, partial curve].

Take `COc1ccc(S(=O)(=O)N2CCCCC2)cc1C(=O)Nc1cccc(C(F)(F)F)c1`: under setting [2], the AC50 is 2.51 µM [falling, partial curve].

`O=C(OCCN(C1=NS(=O)(=O)c2ccccc21)c1ccc(Cl)cc1)c1ccco1`: the half-maximal activity concentration (AC50) is 12.6 µM [rising, single point] under setting [1] and 15.8 µM [rising, single point] under setting [2].

Consider `COc1ccc(-c2ccc(=O)n(CC(=O)Nc3ccc(C)cc3C)n2)cc1`, for which the AC50 is 12.6 µM [falling, partial curve] under setting [1] and 0.0224 µM [falling, full curve, poor fit] under setting [2].

For `CCCCn1nnnc1NCc1ccc(OC)c(OC)c1OC`, under setting [2], the AC50 was 15.8 µM [rising, single point].

For `Cc1cccc(-c2noc(CN(C(=O)c3ccc4c(c3)OCO4)C(C)C)n2)c1`, the AC50 under setting [2] was 31.6 µM [rising, single point].

Consider `C=CCNC(=O)c1ccc(C(=O)c2ccccc2)cc1`, for which the AC50 under setting [2] was 10 µM [rising, single point].
